Reference: PubChem BioAssay AID1224828 (NIAID, 2016)

- Assay: 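Knock-downs that increase or decrease LPS-induced p65 nuclear translocation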 (primary screen)
- System: mouse RAW264.7 G9 macrophage reporter cells (GFP-p65, Tnf promoter-mCherry)
- Reagent: siRNA pool against mouse genes, 100 nM
- Time to read-out: 2 days siRNA transfection, then 40 min LPS before fixation
- Challenge: LPS (Salmonella minnesota R595) at 10 ng/ml
- Read-out: 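Microscopy ratio of nuclear to perinuclear-ring GFP-p65 signal, scaled to the plate median; gene score is the average of two replicate robust z-scores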
- Direction: p65 translocation robust z-score: higher = more nuclear NF-kappaB p65 after LPS than the plate median; nuclear/cytoplasmic p65 ratio: higher = more nuclear NF-kappaB p65
- Hit rule: 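Active if robust z is above 3.3 (negative regulators) or below -1.56, the Tlr4 control median (positive regulators); activity score 50 or more; control wells not called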
- Calls: active = hit (p65 shift raised or lowered); inactive = no clear change
The whole screen tested about 17,000 reagents; shown is a random part of them. Of all reagents, 762 (4.5%) are marked active. 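Active calls include both raised and lowered p65 entry, mostly lowered; wells with fewer than 50 cells lack a z-score.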 Raw values are not corrected between plates. Entries without a mark were called inactive.

Which result is listed for Ccdc28b?
nuclear/cytoplasmic p65 ratio, rep 2: 1.22; low cell count flag: fewer than 50 cells per well; well left out of scoring

What did the screen give for Frmd3?
p65 translocation robust z-score: 0.71; nuclear/cytoplasmic p65 ratio, rep 1: 1.71; nuclear/cytoplasmic p65 ratio, rep 2: 1.55; low cell count flag: enough cells to score

With Snn, how do the results read?
p65 translocation robust z-score: 0.4; nuclear/cytoplasmic p65 ratio, rep 1: 1.59; nuclear/cytoplasmic p65 ratio, rep 2: 1.63; low cell count flag: enough cells to score

Which result is listed for Il1a?
p65 translocation robust z-score: 0.65; nuclear/cytoplasmic p65 ratio, rep 1: 1.54; nuclear/cytoplasmic p65 ratio, rep 2: 1.49; low cell count flag: enough cells to score

With Syn2, what does the deposit list?
p65 translocation robust z-score: 2.33; nuclear/cytoplasmic p65 ratio, rep 1: 1.76; nuclear/cytoplasmic p65 ratio, rep 2: 1.36; low cell count flag: enough cells to score

What did the screen give for Rpl12?
nuclear/cytoplasmic p65 ratio, rep 1: 1.37; nuclear/cytoplasmic p65 ratio, rep 2: 1.23; low cell count flag: fewer than 50 cells per well; well left out of scoring

Entries listed so far whose gene name starts with S or s (2):
Snn: p65 translocation robust z-score = 0.4; nuclear/cytoplasmic p65 ratio, rep 1 = 1.59; nuclear/cytoplasmic p65 ratio, rep 2 = 1.63; low cell count flag = enough cells to score
Syn2: p65 translocation robust z-score = 2.33; nuclear/cytoplasmic p65 ratio, rep 1 = 1.76; nuclear/cytoplasmic p65 ratio, rep 2 = 1.36; low cell count flag = enough cells to score

The listing continues:
For Nrip2, what does the deposit list?
p65 translocation robust z-score: -0.28; nuclear/cytoplasmic p65 ratio, rep 1: 1.16; nuclear/cytoplasmic p65 ratio, rep 2: 1.36; low cell count flag: enough cells to score

What did the screen give for Drc8?
nuclear/cytoplasmic p65 ratio, rep 1: 1.38; nuclear/cytoplasmic p65 ratio, rep 2: 1.2; low cell count flag: fewer than 50 cells per well; well left out of scoring

With Vmn1r21, what was measured?
nuclear/cytoplasmic p65 ratio, rep 1: 1.68; nuclear/cytoplasmic p65 ratio, rep 2: 1.36; low cell count flag: fewer than 50 cells per well; well left out of scoring

What is on record for Pcdhb15?
p65 translocation robust z-score: 2.17; nuclear/cytoplasmic p65 ratio, rep 1: 1.88; nuclear/cytoplasmic p65 ratio, rep 2: 1.36; low cell count flag: enough cells to score

With Rcor3, what was measured?
p65 translocation robust z-score: -0.37; nuclear/cytoplasmic p65 ratio, rep 1: 1.39; nuclear/cytoplasmic p65 ratio, rep 2: 1.16; low cell count flag: enough cells to score

With Adrb3, what does the deposit list?
p65 translocation robust z-score: 0.77; nuclear/cytoplasmic p65 ratio, rep 1: 1.64; nuclear/cytoplasmic p65 ratio, rep 2: 1.67; low cell count flag: enough cells to score

With Tes, what does the deposit list?
nuclear/cytoplasmic p65 ratio, rep 1: 1.16; nuclear/cytoplasmic p65 ratio, rep 2: 1.11; low cell count flag: fewer than 50 cells per well; well left out of scoring

For Hoxb8, how do the results read?
p65 translocation robust z-score: 1.06; nuclear/cytoplasmic p65 ratio, rep 1: 1.83; nuclear/cytoplasmic p65 ratio, rep 2: 1.67; low cell count flag: enough cells to score
